PubChem BioAssay AID1850 (Southern Research Specialized Biocontainment Screening …, 2009)
Where “and” joins values, the source holds several entries; their conditions need not be identical. Identical values can stand only once. The list shows a part of the results, in another mix than the full data. Results with a measured potency or affinity are listed apart. Calls of active or inactive are those of the source. The rule behind the calls is not given here.

assay: Inhibition of PhoP regulon, Salmonella typhi GFP reporter cells, confirmation, 4 h (AID 1850); settings: Salmonella Typhi PhoP-promoter GFP reporter, fluorescence, at 50 µM, hits give high values;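 note: 0% = induced wells with vehicle and 100% = uninduced wells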

| SMILES | inhibition |
| --- | --- |
| CNCCCC12CCC(c3ccccc31)c1ccccc12 | inactive: -12% and inactive: 9.72% |
